From PubChem BioAssay AID1259415 (National Center for Advancing Translational Sciences (NCATS), 2018)
Among all 410,000 compounds or so, about 18,000 (4.4%) were called active. The shares of active, inactive and inconclusive entries below differ from those in the screen. No stated cut-off is given here; in the data, active means activity change below about -60%; inconclusive means no clear call, values can overlap the other calls; inactive means above about -39%.

assay: qHTS Assay for inhibitors of the human cytomegalovirus (HCMV); settings: HFF cells, HCMV-luciferase reporter, 72 h; at 57.5 µM; stronger effect = lower value
Summary of the method: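 Screen run at 2 compound doses on HFFs infected with reporter HCMV, MOI 1 PFU/cell. Luciferase activity from cell lysates at 72 h post infection gave inhibition relative to buffer-only and Salinomycin wells.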
On the % scale 0 is the no-effect control and ±100 the full control effect.

Compound	activity change, negative = inhibition
CC(C)c1ccc(NC(=O)N2CCc3nc(NCc4cccc(Oc5ccccc5)c4)ncc3C2)cc1	active: -86.6%
C/C(=N\NC(=O)C1CCCN(S(=O)(=O)c2ccccc2)C1)c1cccnc1 (stereo not given)	inactive: 10.1%
Cc1cccc(CCNC(=O)CC2C(=O)NCCN2Cc2ccc(F)c(F)c2)n1 (stereo not given)	inconclusive: -46%
COc1cccc(NC(=O)Cn2c(=O)n(CC(=O)NCCc3ccccc3)c(=O)c3sccc32)c1	inconclusive: -51.2%
CCOC(=O)c1cc(-c2ccc(F)cc2)n(CC(=O)NCc2ccccn2)c1C	inconclusive: -42.7%
CCCCOC(=O)/C(=C\c1ccc([N+](=O)[O-])o1)NC(=O)c1ccccc1	inconclusive: -58.8%
Cc1c(Cl)cccc1NC(=O)CSC(C)c1nc2ccccc2c(=O)[nH]1 (stereo not given)	inconclusive: -45.4%
CC(=O)OCc1c(C(F)(F)F)nn(C)c1Oc1ccccc1	inconclusive: -51.1%
Cc1cccc(NC(=O)c2nc[nH]c2C(=O)NCc2ccccc2)c1	active: -60.5%
C=CCN(CC=C)S(=O)(=O)c1ccc(C(=O)Nc2nnc(COC)o2)cc1	inconclusive: -48.7%
CCCn1c(NC(=O)CCNC(=O)c2ccccc2Cl)nc2ccccc21	inconclusive: -52.1%
CC[C@H](C)C1NC(=O)[C@H](CC(=O)O)NC(=O)c2cc([N+](=O)[O-])cc(I)c2NCCC(C(N)=O)NC1=O (stereo not given in full)	inconclusive: -52.7%
Cc1ccc(S(=O)(=O)N/N=C\c2cn(CC(N)=O)c3ccccc23)cc1	inactive: 44.5%
COc1cc(C(=S)N2CCCC2)cc(OC)c1OS(=O)(=O)c1ccc(NC(C)=O)cc1	inactive: -22.9%
COC(=O)c1ccc(CNC(=O)COC(=O)c2ccc(N(C)C)cc2)cc1	active: -66.2%
CCN(CC)S(=O)(=O)c1ccc(NC(=O)c2cnccn2)cc1	inactive: 2.68%
NC(=O)CSc1nnc2ccc(-c3ccc(F)cc3)nn12	inconclusive: -40.5%
CCCOc1ccc(Cc2c(Cl)nc(SC)nc2N(C)C)cc1	active: -66.8%
Cc1c(Cc2ccccc2)c(=O)n2c([nH]c3ccccc32)c1C#N	inconclusive: -59%
CC(=O)c1ccc(N2C(=O)N(Cc3cc(C)ccc3C)c3ccccc3S2(=O)=O)cc1	inconclusive: -51%
COC(=O)C1=CN(C2CC2)C=C(C(=O)OC)C1c1ccc(C(=O)OC)cc1	inactive: -6.38%
COc1ccc(OC)c(NC(=O)CNC(=O)c2ccc([N+](=O)[O-])cc2)c1	inconclusive: -49.4%
Cc1cc(Nc2ccc(F)cc2)nc(-n2nc(C)cc2C)n1	active: -83.4%
Cc1ccc(C(=O)Nc2ccc3nc(N4CCCCC4)cc(C)c3c2)cc1F	inconclusive: -57.5%
CSc1ccccc1C(=O)Nc1cccc([N+](=O)[O-])c1C	inconclusive: -42.2%
Brc1ccc(CNc2cc3c(cc2Br)OCCO3)cc1	inconclusive: -46.2%
N=C1S/C(=C\c2ccc(-c3ccccc3C(=O)O)o2)C(=O)N1c1ccc2c(c1)OCO2	inconclusive: -40.4%
CN1[C@@H]2CC[C@H]1CC(OC(=O)C(CO)c1ccccc1)C2 (stereo not given in full)	inconclusive: -50.6%

Compound	activity change, negative = inhibition
Cc1ccc(C)c(N2CCN(CCCNC(=O)Nc3ccc(Cl)cc3)CC2)c1	active: -76.9%
COc1ccc(/C=N/Nc2ncc(-c3ccccc3)cn2)c(OC)c1	inconclusive: -43.6%
CCN(CC)CCNC(=O)Cn1nc(-c2ccccc2)c2ccccc2c1=O	inconclusive: -43.4%
Cc1cccc(Nc2c3c(nc4nncn24)CCC3)c1C	inconclusive: -52.1%
Cc1cccc(C)c1OCc1cc(C(=O)N2CCNC(=O)C2)no1	inactive: -36.3%
CCC1(C(=O)c2ccccc2)C(c2cccc([N+](=O)[O-])c2)C1(C(=O)OC)C(=O)OC (stereo not given)	inconclusive: -59.1%
O=C1N=C(N2CCOCC2)S/C1=C\C=C/c1ccccc1	active: -102%
COc1ccc(CCNC(=O)COc2ccc(N(C)S(=O)(=O)c3ccc(C)cc3)cc2)cc1	inconclusive: -49%
CCCCN(C)C(=O)Cn1c(SCC(=O)Nc2ccc(C)c(C)c2)nc2ccccc21	inactive: -25.5%
O=C(COc1ccccc1Cl)Nc1cc(Cl)ccc1Oc1ccccc1	inactive: 73.3%
Cc1ccccc1NC(=O)c1cnc2sc(N3CCCC3)nn2c1=O	inconclusive: -51.7%
Nc1nc(SCc2ccc(Br)cc2)c2ncn(C3OC(CO)C(O)C3O)c2n1 (stereo not given)	active: -61.1%
CCN(C(=O)COc1cc(=O)n(C)c2ccccc12)c1cccc(Cl)c1	active: -90.2%
Cc1onc(C(=O)/C=C/N(C)C)c1C(=O)Nc1nccs1	inactive: 3.3%
O=C(c1cc(COc2ccc(F)cc2Cl)on1)N1CCc2ccccc2C1	inconclusive: -49.2%
Cc1c(O[C@@H]2O[C@H](CO)[C@@H](O)[C@H](O)[C@H]2O)ccc2c1oc(=O)c1ccccc12	inactive: -15.8%
CCc1ccc(-c2cn(-c3nc(C)cc(C)n3)c(=N)o2)cc1	active: -101%
Cc1ccc(S(=O)(=O)NCCc2csc3nc(-c4ccccc4C)nn23)cc1	inactive: -3.36%
COc1ccc(/C=C2/CCc3ccccc3C2=O)cc1OC	inconclusive: -45.1%
O=S(=O)(c1cccs1)N1CCN(CC(O)COc2cc(Cl)ccc2Cl)CC1 (stereo not given)	active: -60.9%
COc1ccc2ncc(OC(C)=O)cc2c1	inactive: 31.1%
CCCCc1c(-c2cccc(Br)c2)ncn1CCc1ccccc1OC	active: -101%
COC(=O)COc1ccc(/C=N/NC(=O)c2ccc(N(Cc3ccccc3)S(C)(=O)=O)cc2)cc1	inconclusive: -56.7%
O=c1[nH][nH]c(-c2ccccc2O)c1C(C[N+](=O)[O-])c1ccccc1 (stereo not given)	inconclusive: -41.3%
COc1ccccc1OCCn1cc(C#N)c2ccccc21	inconclusive: -42.8%
CCCCCCCCCn1ccc(=N)cc1	active: -94.7%
O=C(NC1CCN(Cc2ccccc2)CC1)C12CC3CC(CC(C3)C1)C2	inconclusive: -57.9%

Single entries from the entries so far.
For activity change, negative = inhibition, CCCOc1ccc(Cc2c(Cl)nc(SC)nc2N(C)C)cc1 is listed with active: -66.8%
For activity change, negative = inhibition, Cc1c(Cl)cccc1NC(=O)CSC(C)c1nc2ccccc2c(=O)[nH]1 (stereo not given) is listed with inconclusive: -45.4%
For activity change, negative = inhibition, O=C(NC1CCN(Cc2ccccc2)CC1)C12CC3CC(CC(C3)C1)C2 is listed with inconclusive: -57.9%
For activity change, negative = inhibition, O=C(c1cc(COc2ccc(F)cc2Cl)on1)N1CCc2ccccc2C1 is listed with inconclusive: -49.2%
For activity change, negative = inhibition, Cc1ccccc1NC(=O)c1cnc2sc(N3CCCC3)nn2c1=O is listed with inconclusive: -51.7%
